Data reported in patent publication US20240325369A1 (priority 2021, published 2024).

Test system: metastatic castration-resistant prostate cancer (mCRPC) with DNA-repair anomalies
Settings: over time, BRCA and non-BRCA groups; 300 mg once daily
Procedure: The planned sample size was approximately 120 subjects with measurable disease who were biomarker-positive (approximately 75 subjects with DNA repair anomalies in BRCA [BRCA1 or BRCA2] and approximately 45 subjects with biallelic DNA-repair anomalies in non-BRCA [ATM, FANCA, PALB2, CHEK2, BRIP1, or HDAC2]).
Efficacy objectives were evaluated for subjects meeting the biomarker selection criteria described in the protocol. All subjects were monitored for safety during the study period, and up to 30 days after the last dose of study drug. Treatment continued until disease progression, unacceptable toxicity, death, or termination of the study by the sponsor. […]
The primary endpoint was ORR and summarized for the BRCA analysis set along with the 95% 2-sided exact CI. […] ORR in non-BRCA subjects was analyzed in the same way.
Descriptive summaries of CTC response were generated for BRCA and non-BRCA analysis sets, measurable and non-measurable subgroups and tabulated with its 2-sided 95% exact CI. […] All time to event secondary endpoints were evaluated using Kaplan-Meier method for BRCA and non-BRCA analysis sets. […]
Time to degradation was determined using the following meaningful change threshold values: FACT-P Total (10-point reduction from baseline), EQ-5D-5L Index (0.09-point reduction from baseline). […]

NC(=O)c1cccc2cn(-c3ccc([C@@H]4CCCNC4)cc3)nc12 [Niraparib, 2-[4-[(3S)-piperidin-3-yl]phenyl]-2H-indazole-7-carboxamide]
FACT-P, and EQ-5D-5L VAS and Index scores (patient-reported outcomes): stable over time
